Measurements taken from the supplement of paper PMC10849652.
The other results are listed elsewhere or left out.

Chains of the proteins cited; added tags and fusions are not shown. Lines headed by an entry give the natural chain unless they say otherwise; changes in a name come on top.
UniProt O14639: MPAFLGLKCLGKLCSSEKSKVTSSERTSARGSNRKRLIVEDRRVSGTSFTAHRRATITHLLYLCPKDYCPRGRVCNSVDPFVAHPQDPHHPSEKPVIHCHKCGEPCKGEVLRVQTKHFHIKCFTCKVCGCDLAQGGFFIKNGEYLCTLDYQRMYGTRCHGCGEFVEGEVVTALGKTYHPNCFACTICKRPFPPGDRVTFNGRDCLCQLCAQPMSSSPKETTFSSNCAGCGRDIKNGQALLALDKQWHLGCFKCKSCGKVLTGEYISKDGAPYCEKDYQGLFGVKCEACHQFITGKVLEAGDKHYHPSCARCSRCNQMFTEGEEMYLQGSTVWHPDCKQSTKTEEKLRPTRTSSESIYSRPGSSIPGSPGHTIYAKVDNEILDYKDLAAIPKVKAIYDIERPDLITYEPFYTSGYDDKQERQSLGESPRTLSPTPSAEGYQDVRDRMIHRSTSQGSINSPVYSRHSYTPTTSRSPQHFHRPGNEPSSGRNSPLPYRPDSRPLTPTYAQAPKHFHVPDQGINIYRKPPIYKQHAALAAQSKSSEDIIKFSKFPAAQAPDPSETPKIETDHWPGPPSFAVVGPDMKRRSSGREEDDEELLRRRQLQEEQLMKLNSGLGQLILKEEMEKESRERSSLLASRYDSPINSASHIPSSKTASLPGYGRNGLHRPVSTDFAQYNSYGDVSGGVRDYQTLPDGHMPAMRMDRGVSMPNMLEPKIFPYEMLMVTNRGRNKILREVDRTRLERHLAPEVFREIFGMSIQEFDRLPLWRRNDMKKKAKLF
UniProt Q9NZ32, whole entry, looked up: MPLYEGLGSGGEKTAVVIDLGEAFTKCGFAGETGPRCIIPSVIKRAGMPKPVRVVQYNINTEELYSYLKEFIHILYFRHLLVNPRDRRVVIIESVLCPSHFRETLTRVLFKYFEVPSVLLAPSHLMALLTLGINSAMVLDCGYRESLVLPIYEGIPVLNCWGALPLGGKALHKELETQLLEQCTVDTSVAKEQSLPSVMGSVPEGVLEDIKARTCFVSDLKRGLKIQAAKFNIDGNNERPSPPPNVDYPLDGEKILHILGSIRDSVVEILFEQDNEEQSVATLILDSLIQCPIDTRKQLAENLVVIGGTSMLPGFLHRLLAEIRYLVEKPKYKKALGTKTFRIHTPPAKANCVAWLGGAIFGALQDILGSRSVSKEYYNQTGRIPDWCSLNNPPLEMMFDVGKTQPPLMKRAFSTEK
UniProt Q9BTE6: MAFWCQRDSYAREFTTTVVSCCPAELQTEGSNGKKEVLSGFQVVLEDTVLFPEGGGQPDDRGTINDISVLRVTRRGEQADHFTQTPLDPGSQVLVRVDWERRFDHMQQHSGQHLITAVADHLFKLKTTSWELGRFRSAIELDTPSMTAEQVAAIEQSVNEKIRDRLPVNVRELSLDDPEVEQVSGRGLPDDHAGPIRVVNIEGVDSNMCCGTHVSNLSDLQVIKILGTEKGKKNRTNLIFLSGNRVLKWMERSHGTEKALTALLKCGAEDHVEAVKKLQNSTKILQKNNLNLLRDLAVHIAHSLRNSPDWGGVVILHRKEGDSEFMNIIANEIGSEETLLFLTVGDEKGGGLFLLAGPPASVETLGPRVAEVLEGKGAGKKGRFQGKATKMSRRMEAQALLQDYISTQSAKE
UniProt Q7Z6V5: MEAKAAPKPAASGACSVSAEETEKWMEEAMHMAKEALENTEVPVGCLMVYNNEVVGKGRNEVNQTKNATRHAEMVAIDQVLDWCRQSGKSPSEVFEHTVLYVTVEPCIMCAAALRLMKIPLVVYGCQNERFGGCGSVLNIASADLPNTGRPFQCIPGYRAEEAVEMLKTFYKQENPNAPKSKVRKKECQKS
UniProt P01023, whole entry, looked up: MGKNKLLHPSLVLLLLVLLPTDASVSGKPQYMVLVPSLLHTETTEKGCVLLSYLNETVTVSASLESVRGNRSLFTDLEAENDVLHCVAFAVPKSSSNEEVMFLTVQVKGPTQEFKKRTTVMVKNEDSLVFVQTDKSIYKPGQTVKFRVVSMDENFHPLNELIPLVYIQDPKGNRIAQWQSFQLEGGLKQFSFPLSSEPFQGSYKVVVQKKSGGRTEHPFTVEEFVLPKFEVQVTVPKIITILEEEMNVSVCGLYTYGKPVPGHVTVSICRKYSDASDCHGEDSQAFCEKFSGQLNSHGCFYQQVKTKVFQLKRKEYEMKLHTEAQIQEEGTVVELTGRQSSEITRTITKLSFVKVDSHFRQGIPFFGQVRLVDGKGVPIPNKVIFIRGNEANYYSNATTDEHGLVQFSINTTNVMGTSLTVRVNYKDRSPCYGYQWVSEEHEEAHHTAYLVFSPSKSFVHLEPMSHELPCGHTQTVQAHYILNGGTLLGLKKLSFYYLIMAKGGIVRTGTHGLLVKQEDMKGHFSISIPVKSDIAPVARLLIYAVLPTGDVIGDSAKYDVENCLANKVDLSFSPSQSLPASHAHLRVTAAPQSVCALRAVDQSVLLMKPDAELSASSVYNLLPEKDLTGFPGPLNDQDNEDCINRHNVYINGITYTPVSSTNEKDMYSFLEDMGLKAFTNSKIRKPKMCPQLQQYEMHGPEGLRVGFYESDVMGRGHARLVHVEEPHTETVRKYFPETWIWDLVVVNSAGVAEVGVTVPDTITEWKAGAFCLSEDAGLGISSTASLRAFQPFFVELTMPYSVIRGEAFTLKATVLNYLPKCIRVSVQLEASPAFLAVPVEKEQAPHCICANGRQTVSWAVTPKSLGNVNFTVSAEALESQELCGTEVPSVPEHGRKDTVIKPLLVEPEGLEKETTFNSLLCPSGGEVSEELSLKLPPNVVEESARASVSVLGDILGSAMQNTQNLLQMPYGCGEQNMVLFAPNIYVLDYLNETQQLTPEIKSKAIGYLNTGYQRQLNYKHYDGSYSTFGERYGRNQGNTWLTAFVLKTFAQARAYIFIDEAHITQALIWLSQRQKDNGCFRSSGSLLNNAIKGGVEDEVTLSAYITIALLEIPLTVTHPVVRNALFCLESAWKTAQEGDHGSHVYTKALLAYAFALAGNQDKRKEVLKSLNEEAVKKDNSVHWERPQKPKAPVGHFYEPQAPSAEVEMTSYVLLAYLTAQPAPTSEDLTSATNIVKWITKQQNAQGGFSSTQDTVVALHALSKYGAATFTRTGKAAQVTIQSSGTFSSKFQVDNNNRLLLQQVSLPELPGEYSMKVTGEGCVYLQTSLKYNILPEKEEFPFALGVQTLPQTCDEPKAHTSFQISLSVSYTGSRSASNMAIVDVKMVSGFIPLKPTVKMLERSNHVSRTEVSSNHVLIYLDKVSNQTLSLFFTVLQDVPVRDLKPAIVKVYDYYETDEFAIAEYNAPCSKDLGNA
UniProt Q15057: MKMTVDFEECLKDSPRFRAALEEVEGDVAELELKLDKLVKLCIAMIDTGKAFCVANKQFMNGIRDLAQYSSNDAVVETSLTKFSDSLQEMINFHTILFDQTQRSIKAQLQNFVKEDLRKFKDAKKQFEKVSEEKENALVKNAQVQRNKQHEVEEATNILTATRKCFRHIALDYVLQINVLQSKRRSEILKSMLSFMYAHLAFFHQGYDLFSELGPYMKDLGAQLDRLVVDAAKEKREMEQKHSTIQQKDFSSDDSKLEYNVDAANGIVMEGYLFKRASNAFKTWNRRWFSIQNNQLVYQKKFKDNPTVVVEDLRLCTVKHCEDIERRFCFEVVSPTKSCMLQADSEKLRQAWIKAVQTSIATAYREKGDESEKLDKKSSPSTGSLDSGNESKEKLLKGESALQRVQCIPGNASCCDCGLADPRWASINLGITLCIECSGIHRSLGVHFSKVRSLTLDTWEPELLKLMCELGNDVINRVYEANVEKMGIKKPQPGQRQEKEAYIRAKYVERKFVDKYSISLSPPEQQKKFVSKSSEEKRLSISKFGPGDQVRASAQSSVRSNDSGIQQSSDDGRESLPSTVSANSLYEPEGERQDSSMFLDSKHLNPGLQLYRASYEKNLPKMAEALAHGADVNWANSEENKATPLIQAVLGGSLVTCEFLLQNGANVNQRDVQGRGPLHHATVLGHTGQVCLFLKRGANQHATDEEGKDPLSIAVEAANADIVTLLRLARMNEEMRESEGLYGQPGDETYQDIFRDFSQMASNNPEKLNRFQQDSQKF
UniProt Q4G176: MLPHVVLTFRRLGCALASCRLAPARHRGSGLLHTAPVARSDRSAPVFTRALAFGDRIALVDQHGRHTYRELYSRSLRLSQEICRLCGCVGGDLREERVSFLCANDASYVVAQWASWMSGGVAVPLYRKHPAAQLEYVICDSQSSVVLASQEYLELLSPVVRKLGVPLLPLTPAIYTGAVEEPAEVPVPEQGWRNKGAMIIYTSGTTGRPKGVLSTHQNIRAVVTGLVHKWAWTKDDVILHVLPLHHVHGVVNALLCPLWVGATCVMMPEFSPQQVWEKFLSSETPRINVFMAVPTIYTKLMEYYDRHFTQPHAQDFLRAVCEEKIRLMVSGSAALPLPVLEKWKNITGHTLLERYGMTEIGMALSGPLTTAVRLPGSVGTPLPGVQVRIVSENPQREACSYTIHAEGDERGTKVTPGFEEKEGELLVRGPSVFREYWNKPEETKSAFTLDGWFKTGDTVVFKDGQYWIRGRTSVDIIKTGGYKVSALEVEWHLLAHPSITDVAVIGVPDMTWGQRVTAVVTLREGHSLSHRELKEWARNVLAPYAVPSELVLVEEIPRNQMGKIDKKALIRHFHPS
UniProt Q6PD74: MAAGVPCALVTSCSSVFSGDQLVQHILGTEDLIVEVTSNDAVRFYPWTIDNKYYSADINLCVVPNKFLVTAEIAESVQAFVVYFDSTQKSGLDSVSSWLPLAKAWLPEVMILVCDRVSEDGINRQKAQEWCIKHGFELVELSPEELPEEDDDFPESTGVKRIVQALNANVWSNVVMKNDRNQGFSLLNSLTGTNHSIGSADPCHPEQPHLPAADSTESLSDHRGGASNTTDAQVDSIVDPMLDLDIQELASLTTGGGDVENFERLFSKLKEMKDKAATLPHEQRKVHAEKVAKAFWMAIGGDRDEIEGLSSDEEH
UniProt O15254: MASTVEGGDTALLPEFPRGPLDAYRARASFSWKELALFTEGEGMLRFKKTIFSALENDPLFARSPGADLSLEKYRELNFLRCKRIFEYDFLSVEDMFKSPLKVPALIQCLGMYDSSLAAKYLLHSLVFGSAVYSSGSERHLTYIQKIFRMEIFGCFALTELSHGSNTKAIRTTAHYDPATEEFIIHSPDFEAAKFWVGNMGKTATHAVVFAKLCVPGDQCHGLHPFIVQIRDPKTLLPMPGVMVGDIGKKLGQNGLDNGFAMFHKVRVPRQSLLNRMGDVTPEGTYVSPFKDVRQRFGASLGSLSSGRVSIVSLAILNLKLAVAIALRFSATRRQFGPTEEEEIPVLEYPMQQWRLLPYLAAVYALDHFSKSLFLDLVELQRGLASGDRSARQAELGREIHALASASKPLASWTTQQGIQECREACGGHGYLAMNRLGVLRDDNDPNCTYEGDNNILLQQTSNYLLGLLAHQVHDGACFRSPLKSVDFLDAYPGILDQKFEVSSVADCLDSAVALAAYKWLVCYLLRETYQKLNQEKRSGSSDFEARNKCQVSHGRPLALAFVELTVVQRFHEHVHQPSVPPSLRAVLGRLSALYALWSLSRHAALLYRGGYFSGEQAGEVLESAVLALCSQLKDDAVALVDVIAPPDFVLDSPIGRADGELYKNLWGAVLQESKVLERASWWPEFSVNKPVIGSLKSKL
UniProt Q9ULC5: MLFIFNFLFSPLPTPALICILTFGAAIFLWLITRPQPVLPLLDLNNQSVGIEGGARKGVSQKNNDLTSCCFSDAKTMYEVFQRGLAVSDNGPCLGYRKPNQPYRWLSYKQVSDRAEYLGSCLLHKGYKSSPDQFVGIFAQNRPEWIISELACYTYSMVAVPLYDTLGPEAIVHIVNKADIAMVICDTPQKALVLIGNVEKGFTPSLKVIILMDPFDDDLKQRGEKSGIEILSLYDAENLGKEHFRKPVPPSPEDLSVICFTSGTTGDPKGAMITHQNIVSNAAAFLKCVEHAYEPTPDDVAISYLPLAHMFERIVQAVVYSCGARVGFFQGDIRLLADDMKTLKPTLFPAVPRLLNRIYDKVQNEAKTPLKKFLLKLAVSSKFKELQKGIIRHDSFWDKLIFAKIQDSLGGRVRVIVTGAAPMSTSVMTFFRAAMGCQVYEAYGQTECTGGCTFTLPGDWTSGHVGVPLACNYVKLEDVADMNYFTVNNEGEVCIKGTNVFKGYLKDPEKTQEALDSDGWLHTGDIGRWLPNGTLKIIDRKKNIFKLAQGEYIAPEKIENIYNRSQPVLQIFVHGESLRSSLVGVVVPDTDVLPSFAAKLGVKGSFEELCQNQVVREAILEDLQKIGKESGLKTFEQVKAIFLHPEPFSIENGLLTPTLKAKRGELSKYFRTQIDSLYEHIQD

Key:
Test in all cases: log2 fold change, soluble protein after heating vs DMSO (PISA); higher = thermal stabilisation; K562 cells, 10 uM, 30 min; active = over 0.2 and 3.5 SD of the protein, either way, in both replicates (recomputed)
[1] = compound: CS(=O)(=O)c1ccc(-c2cnc(N)c(C(=O)Nc3ccccc3)n2)cc1
Method in brief: (§1)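 Quantification of soluble protein used TMTpro 16plex LC-MS/MS, with channel sums equalised. Samples were the supernatant after 21,000xg for 90 min of pooled aliquots from K562 cells (2×10^6 cells/mL) treated with 10 μM compound for 30 min, heated for 3 min over 48°C-58°C, and extracted in PBS with 0.5% NP-40 at 4°C. Values, from duplicates, describe thermal stability against control samples on a log2 fold-change scale.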

crizotinib = compound: C[C@@H](Oc1cc(-c2cnn(C3CCNCC3)c2)cnc1N)c1c(Cl)ccc(F)c1Cl [crizotinib]
Method in brief: as §1

[2] = compound: C[C@@H]1COCCN1C2=NC(=NC(=C2)C3(CC3)S(=O)(=O)C)C4=C5C=CNC5=CC=C4
Method in brief: as §1

[3] = compound: C[C@H](C1=CC=C(C=C1)C(=O)NC2=C3C=CNC3=NC=C2)N
Method in brief: as §1

duvelisib = compound: C[C@H](Nc1ncnc2nc[nH]c12)c1cc2cccc(Cl)c2c(=O)n1-c1ccccc1 [duvelisib]
Method in brief: as §1

gandotinib = compound: Cc1cc(Nc2cc(CN3CCOCC3)c3nc(C)c(Cc4ccc(Cl)cc4F)n3n2)n[nH]1 [gandotinib]
Method in brief: as §1

tozasertib = compound: Cc1cc(Nc2cc(N3CCN(C)CC3)nc(Sc3ccc(NC(=O)C4CC4)cc3)n2)n[nH]1 [tozasertib]
Method in brief: as §1

[4] = compound: Cc1cc(SCc2sc(-c3ccc(C(F)(F)F)cc3)nc2C)ccc1OCC(=O)O
Method in brief: as §1

doramapimod = compound: Cc1ccc(-n2nc(C(C)(C)C)cc2NC(=O)Nc2ccc(OCCN3CCOCC3)c3ccccc23)cc1 [doramapimod]
Method in brief: as §1

ispinesib = compound: Cc1ccc(C(=O)N(CCCN)[C@@H](c2nc3cc(Cl)ccc3c(=O)n2Cc2ccccc2)C(C)C)cc1 [ispinesib]
Method in brief: as §1

Measured: log2 fold change

ABLIM1 (UniProt O14639)
inactive: [1] -0.027 | crizotinib -0.033 | [2] 0.099 | [3] -0.204 | duvelisib 0.159 | gandotinib -0.17 | tozasertib -0.028 | [4] 0.207 | doramapimod -0.054 | ispinesib 0.073

ACTR10 (UniProt Q9NZ32)
inactive: [1] -0.015 | crizotinib 0.061 | [2] 0.004 | [3] 0.027 | duvelisib 0.089 | gandotinib -0.029 | tozasertib 0.001 | [4] 0.008 | doramapimod 0.02 | ispinesib 0.064

AARSD1 isoform 3 (UniProt Q9BTE6)
inactive: [1] 0.062 | crizotinib 0.054 | [2] 0.012 | [3] 0.013 | gandotinib -0.081 | [4] 0.038 | doramapimod -0.05 | ispinesib 0.067

ABRAXAS1 (UniProt Q6UWZ7)
inactive: [1] 0 | crizotinib 0.054 | [2] -0.011 | [3] 0.216 | duvelisib -0.053 | gandotinib 0.222 | tozasertib -0.04 | [4] -0.058 | doramapimod 0.066 | ispinesib 0.013

ACSL3 (UniProt O95573)
inactive: [1] 0.009 | crizotinib -0.013 | [2] 0.011 | [3] -0.024 | gandotinib -0.046 | [4] 0.097 | doramapimod -0.033 | ispinesib -0.024

ABCF1 (UniProt Q8NE71)
inactive: [1] 0.008 | crizotinib -0.005 | [2] -0.157 | [3] 0.128 | duvelisib -0.042 | gandotinib 0.056 | tozasertib -0.05 | [4] 0.014 | doramapimod 0.12 | ispinesib -0.091

ACTR1A (UniProt P61163)
inactive: [1] 0.011 | crizotinib 0.097 | [2] 0.019 | [3] 0.026 | duvelisib 0.028 | gandotinib -0.035 | tozasertib 0.023 | [4] 0.007 | doramapimod -0.03 | ispinesib 0.06

ACOT8 (UniProt O14734)
inactive: [1] 0.008 | crizotinib 0.034 | [2] -0.012 | [3] -0.024 | duvelisib -0.015 | gandotinib -0.032 | tozasertib -0.005 | [4] 0.005 | doramapimod 0.024 | ispinesib 0.006

ACTR3 (UniProt P61158)
inactive: [1] 0.042 | crizotinib 0.032 | [2] 0.025 | [3] -0.058 | duvelisib -0.018 | gandotinib -0.026 | tozasertib 0.029 | [4] -0.005 | doramapimod -0.014 | ispinesib 0.071

ADAT2 (UniProt Q7Z6V5)
inactive: [1] 0.009 | crizotinib -0.026 | [2] 0.072 | [3] 0.014 | duvelisib 0.055 | gandotinib -0.031 | tozasertib -0.038 | [4] -0.05 | doramapimod -0.026 | ispinesib 0.048

A2M (UniProt P01023)
inactive: [1] -0.161 | crizotinib 0.102 | [2] -0.079 | [3] 0.188 | duvelisib -0.228 | gandotinib -0.016 | tozasertib -0.015 | [4] -0.101 | doramapimod 0.172 | ispinesib -0.054

ACAD8 (UniProt Q9UKU7)
inactive: [1] -0.008 | crizotinib -0.07 | [2] 0.009 | [3] 0.022 | duvelisib 0.037 | gandotinib 0.022 | tozasertib -0.016 | [4] -0.047 | doramapimod 0.016 | ispinesib 0.111

ABHD10 (UniProt Q9NUJ1)
inactive: [1] -0.016 | crizotinib 0.087 | [2] 0.083 | [3] -0.068 | duvelisib 0.025 | gandotinib 0.016 | tozasertib -0.001 | [4] -0.041 | doramapimod -0.144 | ispinesib -0.004

ACAP2 (UniProt Q15057)
inactive: [1] 0.032 | crizotinib 0.033 | [2] 0.069 | [3] 0.023 | gandotinib -0.07 | [4] 0.047 | doramapimod -0.059 | ispinesib 0.002

ACADM isoform 2 (UniProt P11310)
inactive: [1] 0.075 | crizotinib 0.022 | [2] 0.018 | [3] -0.073 | gandotinib 0.049 | [4] -0.01 | doramapimod -0.059 | ispinesib 0.052

ACSF3 (UniProt Q4G176)
inactive: [1] 0.018 | crizotinib 0.063 | [2] -0.002 | [3] 0.026 | gandotinib 0.09 | [4] 0.022 | doramapimod -0.027 | ispinesib 0.174

ACSL1 (UniProt P33121)
active: ispinesib -0.246
inactive: [1] 0.012 | crizotinib -0.091 | [2] 0.017 | [3] -0.024 | gandotinib 0.008 | [4] 0 | doramapimod -0.003

ABHD17A isoform 2 (UniProt Q96GS6)
inactive: [1] -0.027 | crizotinib -0.135 | [2] -0.03 | [3] -0.015 | gandotinib -0.283 | [4] 0.016 | doramapimod 0.004 | ispinesib -0.129

ABHD5 (UniProt Q8WTS1)
inactive: [1] 0.052 | crizotinib -0.066 | [3] -0.061 | duvelisib 0.074 | tozasertib 0.139 | [4] -0.134 | doramapimod 0.009 | ispinesib -0.011

ACTR1B (UniProt P42025)
inactive: [1] 0 | crizotinib -0.009 | [2] 0.156 | [3] 0.072 | gandotinib -0.167 | [4] -0.022 | doramapimod 0 | ispinesib 0.124

AAGAB (UniProt Q6PD74)
inactive: [1] 0.097 | crizotinib -0.134 | [2] -0.035 | [3] 0.084 | gandotinib -0.026 | [4] 0.051 | doramapimod 0.017 | ispinesib -0.017

ACSS1 (UniProt Q9NUB1)
inactive: [1] 0.12 | crizotinib 0.294 | [3] -0.127 | duvelisib 0.184 | gandotinib 0.029 | tozasertib 0.025 | [4] 0.041 | doramapimod 0.117 | ispinesib -0.061

6 consecutive records from above, for reference:
ADAT2 (UniProt Q7Z6V5)
inactive: [1] 0.009 | crizotinib -0.026 | [2] 0.072 | [3] 0.014 | duvelisib 0.055 | gandotinib -0.031 | tozasertib -0.038 | [4] -0.05 | doramapimod -0.026 | ispinesib 0.048

A2M (UniProt P01023)
inactive: [1] -0.161 | crizotinib 0.102 | [2] -0.079 | [3] 0.188 | duvelisib -0.228 | gandotinib -0.016 | tozasertib -0.015 | [4] -0.101 | doramapimod 0.172 | ispinesib -0.054

ACAD8 (UniProt Q9UKU7)
inactive: [1] -0.008 | crizotinib -0.07 | [2] 0.009 | [3] 0.022 | duvelisib 0.037 | gandotinib 0.022 | tozasertib -0.016 | [4] -0.047 | doramapimod 0.016 | ispinesib 0.111

ABHD10 (UniProt Q9NUJ1)
inactive: [1] -0.016 | crizotinib 0.087 | [2] 0.083 | [3] -0.068 | duvelisib 0.025 | gandotinib 0.016 | tozasertib -0.001 | [4] -0.041 | doramapimod -0.144 | ispinesib -0.004

ACAP2 (UniProt Q15057)
inactive: [1] 0.032 | crizotinib 0.033 | [2] 0.069 | [3] 0.023 | gandotinib -0.07 | [4] 0.047 | doramapimod -0.059 | ispinesib 0.002

ACADM isoform 2 (UniProt P11310)
inactive: [1] 0.075 | crizotinib 0.022 | [2] 0.018 | [3] -0.073 | gandotinib 0.049 | [4] -0.01 | doramapimod -0.059 | ispinesib 0.052

Next entries follow:

ACOX3 (UniProt O15254)
inactive: [1] -0.006 | crizotinib -0.091 | [2] 0.016 | [3] 0.065 | doramapimod 0.14

ACSL5 isoform 3 (UniProt Q9ULC5)
inactive: [1] -0.014 | crizotinib -0.146 | [2] 0.11 | [3] 0.009 | gandotinib 0.021 | [4] -0.033 | doramapimod 0.059 | ispinesib -0.316

ABCA4 (UniProt P78363)
inactive: [1] 0.286 | crizotinib 0.035 | [2] 0.036 | [3] 0.019 | gandotinib 0.452 | doramapimod 0.004 | ispinesib -0.119
